Test results from patent US20130012432A1 (Novo Nordisk A/S, priority 2010, published 2013).

Key:
[1] = general procedure: Fmoc solid-phase peptide synthesis; Rink AM polystyrene; HBTU/HOBt/DIPEA; HOAt/DIC; HOAt/DIC with 2,4,6-collidine; details: whole synthesis, scale 0.25 mmol, trifluoroacetate
[2] = general procedure: Fmoc solid-phase peptide synthesis; Fmoc-Rink amide AM polystyrene; HBTU/HOBt/DIPEA; HOAt/DIC; HOAt/DIC with 2,4,6-collidine; details: whole synthesis, scale 0.25 mmol, trifluoroacetate

| Substance | isolated mass [1] | isolated yield [1] | isolated yield ([2]; from 0.25 mmol of Rink AM resin) | isolated mass [2] |
| --- | --- | --- | --- | --- |
| Ac-c[Dap-His-D-Phe-Arg-Trp-Asp]-Pro-Pro-Arg-Asp-Lys-Lys[(2-{2-[16-(tetrazol-5-yl)hexadecanoylamino]ethoxy}ethoxy)acetyl]-NH2 | 0.032 mmol | 13% yield |  |  |
| Ac-homoCys(Trt)-His(Trt)-D-Phe-Arg(Pbf)-Trp(Boc)-Cys(Trt)-Pro-Pro-Lys(Boc)-Glu(OtBu)-Lys(ivDde)-Lys(Mtt)-NH-RinkAM-polystyrene |  |  | 10% yield | 51 mg |
